Source: PubChem BioAssay AID485318 (Broad Institute, 2010)
Among all 1,400 compounds or so, fewer than 10 were called active. This list was built around the results that the source calls inconclusive (neither active nor inactive); the mix of calls is not that of the screen.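 Rule for the calls: active = fluorescence-lowering compounds whose fitted half-maximal concentration is at or below ten times the highest valid dose tested; inconclusive = flat curve at 30 to 70% inhibition, or poor fit; inactive = the rest.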

Sequences of proteins named here, by UniProt entry; tags and fusion partners are left off. A change or cut given only in a name is not applied to a line headed by its entry.
UniProt O15379: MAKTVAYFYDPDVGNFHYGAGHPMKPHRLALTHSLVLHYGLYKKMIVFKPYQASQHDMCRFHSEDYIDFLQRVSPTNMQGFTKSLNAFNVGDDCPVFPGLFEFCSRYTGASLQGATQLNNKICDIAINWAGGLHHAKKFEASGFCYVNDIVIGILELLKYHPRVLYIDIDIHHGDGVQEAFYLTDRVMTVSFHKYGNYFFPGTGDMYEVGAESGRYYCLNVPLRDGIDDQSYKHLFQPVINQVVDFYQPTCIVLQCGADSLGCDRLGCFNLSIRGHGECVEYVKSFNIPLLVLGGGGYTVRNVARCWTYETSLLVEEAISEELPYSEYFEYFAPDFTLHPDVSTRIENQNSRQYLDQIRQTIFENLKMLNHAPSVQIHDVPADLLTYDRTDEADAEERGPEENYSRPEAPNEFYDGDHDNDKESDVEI

The molecules below were run against Histone deacetylase 3 (Homo sapiens) (UniProt O15379) (assay: inhibition of human HDAC3 enzymatic activity – biochemical, fluorescence, cherry-picked samples, counter-screen for JMJD2C/GASC1 demethylase inhibitor project, dose response (AID 485318;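 note: enzyme preincubated with compound before substrate and trypsin were added; 0% = neutral control wells and -100% = SAHA positive control wells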)). Details: recombinant HDAC3, fluorogenic peptide/trypsin coupled; at 12 µM (top of the series).

SMILES | activity change, negative = inhibition
CC(=O)C[C@@H](O)CC(=O)[C@H]1OC(=O)[C@H](C)CCCCc2ccccc21 | inactive: -0.548%
COC(=O)[C@]1(C)N[C@H](CN(C)C(=O)Nc2ccc(F)cc2)[C@@H]2C(=O)N(C)C(=O)[C@@H]21 | inconclusive: -11.8%
O=C(O)CC(NC(=O)Cc1ccc(Cl)cc1)c1ccco1 (stereo unspecified) | inconclusive: -7.88%
Cc1ccc(S(=O)(=O)N2[C@@H](c3ccc(C#N)cc3)C(C(=O)O)=C[C@H]2C(C)(C)C)cc1 | inconclusive: -9.1%
COCCCNC(=O)C1CCN(C(=O)Nc2ccc(Cl)cc2)CC1 | inactive: -0.45%
Cn1cc(C(=O)N2CCCCC2)c(=O)c2cc(S(=O)(=O)N3CCCC3)ccc21 | inconclusive: -3.75%
